# Where “and” joins values, the source holds several entries; their conditions need not be identical. Equal values may be shown once. This list was built around the results that the source calls inconclusive (neither active nor inactive); the mix of calls is not that of the screen. Potencies of inconclusive entries are doubtful fits and often do not repeat. Calls of active or inactive are those of the source. Unless noted, calls come from the whole dose curve; as a rule, active = well fitted curve in the direction sought with a large enough effect in the repeat runs; inconclusive = weak or mixed curves; inactive = no such curve, though single readings can be large; an effect the other way counts as inactive or inconclusive.
# The chains behind the UniProt entries cited, without tags or fusion partners. Where a name states a change or a piece, a line headed by the entry shows the natural chain unless it says otherwise.
# UniProt P19793: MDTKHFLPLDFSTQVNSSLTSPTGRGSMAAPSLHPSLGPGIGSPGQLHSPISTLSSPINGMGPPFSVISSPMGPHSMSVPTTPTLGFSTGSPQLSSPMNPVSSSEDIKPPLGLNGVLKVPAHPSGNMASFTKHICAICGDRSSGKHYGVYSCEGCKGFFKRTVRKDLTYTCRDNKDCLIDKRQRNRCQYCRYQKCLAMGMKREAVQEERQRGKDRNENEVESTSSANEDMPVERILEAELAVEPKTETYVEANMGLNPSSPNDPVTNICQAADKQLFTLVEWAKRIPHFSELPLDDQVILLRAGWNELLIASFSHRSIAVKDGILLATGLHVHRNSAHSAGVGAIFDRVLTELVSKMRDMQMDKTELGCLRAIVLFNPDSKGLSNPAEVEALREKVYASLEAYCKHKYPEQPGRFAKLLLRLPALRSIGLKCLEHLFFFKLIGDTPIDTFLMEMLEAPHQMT
# Columns and labels:
# [1] = target: Retinoic acid receptor RXR-alpha (Homo sapiens) (UniProt P19793); assay: qHTS assay to identify small molecule agonists of the RXR signaling pathway (AID 1159527; calls by dose curve; note: nearly all actives have a fitted effect of over 35% in size; for activation: % is set by controls: 0 for no effect and ±100 for the full control effect); conditions: HEK293T RXRa-UAS-bla, beta-lactamase ratio, 16 h; activation: at 76.8 µM (top of the series) unless noted
# In short: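 Agonist-mode beta-lactamase reporter assay: HEK 293T RXR-alpha-UAS-bla cells treated 16 hr at 37 C with compounds, 9-cis retinoic acid as positive control. LiveBLAzer FRET substrate, 405 nm excitation, 460/530 nm emission.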
# [2] = qHTS assay to identify small molecule agonists of the RXR signaling pathway - cell viability counter screen (AID 1159529); conditions: RXR-alpha-bla HEK293T viability, CellTiter-Glo, 16 h; series mostly up to 76.8 µM; note: nearly all actives have a fitted effect of over 50% in size
# In short: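 CellTiter-Glo luminescence gave viability in the wells also read for beta-lactamase. Cells (RXR-alpha-UAS-bla HEK 293T, 2% charcoal-stripped FBS medium) had 5 hr plating, then 16 hr compound exposure at 37 C; tetraoctyl ammonium bromide served as positive control.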
# [3] = qHTS assay to identify small molecule antagonists of the retinoid acid receptor (RAR) signaling pathway - cell viability counter screen (AID 1159551); conditions: C3RL4 cells viability, ATP luminescence (CellTiter-Glo), 6 h; series mostly up to 92.4 µM; note: nearly all actives have a fitted effect of over 35% in size
# In short: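 In this counter screen, the RARE-luciferase line C3RL4 was exposed for 6 h at 37 C and 5% CO2 to compounds with retinol at 1 uM final. Cellular ATP, read by luminescence, served as the viability measure.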
# [4] = qHTS assay to identify small molecule antagonists of the retinoic acid receptor (RAR) signaling pathway (AID 1159552; note: nearly all actives have a fitted effect of over 50% in size); conditions: C3RL4 RARE luciferase reporter, retinol-stimulated, 6 h; series mostly up to 92.4 µM
# In short: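 Luminescent RARE reporter read-out in C3RL4 cells: 6 hr co-treatment at 37 C of test compounds with retinol at 1 uM final. Cells plated overnight beforehand; luciferase reagent incubated 30 min at room temperature before reading.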
# [5] = qHTS assay to identify small molecule agonists of the retinoic acid receptor (RAR) signaling pathway (AID 1159553); conditions: C3RL4 RARE luciferase reporter, agonist, 6 h; activation: at 73.3 µM (top of the series) unless noted
# In short: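 In this cell-based screen, 1,000 C3RL4 cells per well were cultured overnight, dosed with test chemicals in DMSO for 6 hr, and assessed for RARE luciferase luminescence.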
# Potency is the fitted concentration of half-maximal effect.
Structure (SMILES),activation [1],Potency [2],Potency [3],Potency [4],Potency [1],Potency [5]
CN(Cc1cc(Br)cc(Br)c1N)C1CCCCC1,inconclusive: -22% [at 35.3 µM],inconclusive: 26.8 µM [cytotoxic],"inconclusive: 33.5 µM [cytotoxic, partial curve, poor fit]","inconclusive: 33.5 µM [inhibitor, partial curve, poor fit]",,
CCCCC/C=C\C/C=C\CCCCCCCC(=O)NC(C)c1ccccc1 (configuration not stated),,inactive,,,"inconclusive: 10.7 µM [inhibitor, partial curve, poor fit]",
O=C1NCCN1CCN1CCC(c2cn(-c3ccc(F)cc3)c3ccc(Cl)cc23)CC1,,active: 21.3 µM,"inconclusive: 33.5 µM [cytotoxic, single point]",active: 26.6 µM,"inconclusive: 23.9 µM [cytotoxic, single point]","inconclusive: 26.6 µM [inhibitor, partial curve]"
C[C@@H]1CC[C@H]2C(C)(C)[C@H]3C[C@@]12CC[C@@]3(C)O,,"inconclusive: 38.8 µM [cytotoxic, partial curve, poor fit]",,,inactive,
Cc1[nH]c(=O)c(C#N)cc1-c1ccncc1,,inactive,,,"inconclusive: 24.5 µM [activator, partial curve]",
C[C@H](CCC(=O)O)[C@H]1CC[C@H]2[C@@H]3CC[C@@H]4C[C@H](O)CC[C@]4(C)[C@H]3CC[C@]12C,,"inconclusive: 19.5 µM [cytotoxic, partial curve, poor fit]","inconclusive: 48.4 µM [cytotoxic, partial curve] and inconclusive: 68.6 µM [cytotoxic, single point]",,"inconclusive: 15.4 µM and inconclusive: 7.76 µM [fluorescent, full curve, poor fit]",
CCCCCCCCOc1ccc(C(=O)c2ccccc2)c(O)c1,,"inconclusive: 54.9 µM [cytotoxic, single point]",,,"inconclusive: 12.4 µM [inhibitor, partial curve, poor fit] and inconclusive: 54.9 µM [partial curve]",
O=C(Nc1ccc(Oc2ccc(Cl)cc2)c(Cl)c1)c1cc(I)cc(I)c1O,,"inconclusive: 26.8 µM [cytotoxic, single point]",,"inconclusive: 33.5 µM [inhibitor, single point]","inconclusive: 3.79 µM [inhibitor, full curve]",
CC(NCCC(c1ccccc1)c1ccccc1)c1ccccc1 (configuration not stated),,"inconclusive: 26.8 µM [cytotoxic, single point]","inconclusive: 29.8 µM [cytotoxic, single point]",inconclusive: 29.8 µM [inhibitor],"inconclusive: 21.3 µM [inhibitor, partial curve]",
C#C[C@]1(O)CC[C@H]2[C@@H]3CCc4cc(OC5CCCC5)ccc4[C@H]3CC[C@@]21C,inconclusive: 3.15% [at 35.3 µM],inconclusive: 26.8 µM [cytotoxic],,inactive,,
CC(CCC(=O)O)(c1ccc(O)cc1)c1ccc(O)cc1,inconclusive: 10.1%,inactive,inactive,,,
CC(C)c1ccc(O)c(C(C)C)c1,,active: 38.9 µM,"inconclusive: 61.1 µM [cytotoxic, partial curve]",,"inconclusive: 34.7 µM [inhibitor, partial curve, poor fit]",
O=C1NC2CCCCN2C12CCN(CCCN1c3ccccc3CCc3ccc(Cl)cc31)CC2 (configuration not stated),inconclusive: -22.9% [at 35.3 µM],active: 21.3 µM,"inconclusive: 33.5 µM [cytotoxic, partial curve, poor fit]",,,inconclusive: 29.8 µM [inhibitor]
CC(=O)OC(OC(C)=O)c1ccc([N+](=O)[O-])o1,,active: 49.8 µM,"inconclusive: 69.8 µM [cytotoxic, single point]",,inconclusive: 55.9 µM,"inconclusive: 78.3 µM [inhibitor, single point]"
CCN(CC)C(=O)c1cc(S(=O)(=O)Cc2ccccc2)c(N2CCC(c3ccccc3)CC2)cc1N(CC)CCN(C)C,,active: 15.3 µM,"inconclusive: 24.1 µM [cytotoxic, single point]",,"inconclusive: 3.05 µM [rising, partial curve, poor fit]",

# One compound at a time, as listed above:
# CCCCCCCCOc1ccc(C(=O)c2ccccc2)c(O)c1 as listed: Potency [2]: inconclusive: 54.9 µM [cytotoxic, single point]; Potency [1]: inconclusive: 12.4 µM [inhibitor, partial curve, poor fit] and inconclusive: 54.9 µM [partial curve]
# O=C1NCCN1CCN1CCC(c2cn(-c3ccc(F)cc3)c3ccc(Cl)cc23)CC1 as listed: Potency [2]: active: 21.3 µM; Potency [3]: inconclusive: 33.5 µM [cytotoxic, single point]; Potency [4]: active: 26.6 µM; Potency [1]: inconclusive: 23.9 µM [cytotoxic, single point]; Potency [5]: inconclusive: 26.6 µM [inhibitor, partial curve]

# — PubChem BioAssay (Tox21)
